No constants are given. Whether binding was seen depends on the method and setting. Binding seen in cells or lysates may run through a third protein. Some results given as binding are weak or reduced against the parent protein; the word gives no strength. Sequences can lack the tags named with a protein.
Target: T1, HA-tagged zebrafish RNR M1 subunit (R1) (zebrafish) (UniProt P79732)
T1 sequence: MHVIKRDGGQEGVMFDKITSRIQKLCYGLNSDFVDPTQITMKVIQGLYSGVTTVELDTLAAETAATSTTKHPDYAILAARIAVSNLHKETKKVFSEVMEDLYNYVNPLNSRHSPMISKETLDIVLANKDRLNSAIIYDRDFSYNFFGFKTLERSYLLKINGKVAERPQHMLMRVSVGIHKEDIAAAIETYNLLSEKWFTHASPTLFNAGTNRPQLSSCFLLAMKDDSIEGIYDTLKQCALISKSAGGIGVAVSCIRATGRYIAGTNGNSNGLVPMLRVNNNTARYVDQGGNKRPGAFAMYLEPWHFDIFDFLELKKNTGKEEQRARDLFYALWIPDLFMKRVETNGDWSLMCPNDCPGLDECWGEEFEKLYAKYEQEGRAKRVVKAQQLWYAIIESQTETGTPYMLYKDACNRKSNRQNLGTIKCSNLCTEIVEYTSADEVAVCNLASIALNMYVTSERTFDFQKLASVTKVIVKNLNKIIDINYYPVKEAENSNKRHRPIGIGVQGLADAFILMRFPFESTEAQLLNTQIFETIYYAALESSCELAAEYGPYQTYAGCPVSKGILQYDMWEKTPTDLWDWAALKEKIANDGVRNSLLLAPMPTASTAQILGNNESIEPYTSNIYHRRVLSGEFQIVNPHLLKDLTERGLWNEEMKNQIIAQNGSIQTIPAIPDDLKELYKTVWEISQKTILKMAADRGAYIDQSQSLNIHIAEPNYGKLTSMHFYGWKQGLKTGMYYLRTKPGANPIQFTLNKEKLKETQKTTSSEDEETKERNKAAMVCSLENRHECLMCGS
Test: co-IP; 293T cells co-transfected with HA-R1 and one of the Flag-R2 isoforms; at 45 h protein extracts immunoprecipitated with anti-HA or anti-Flag antibodies; Western blot with the other antibody

B1: Flag-tagged zebrafish R2, normal form (protein, UniProt P79733 1-386)
chain: MSSTRSPLKTKNENTISTKMNNMSFVDKENTPPSLSSTRILASKTARKIFDESEGQSKAKKGAVEEEPLLKENPHRFVIFPIQYHDIWQMYKKAEASFWTAEEVDLSKDLQHWDSLKDEERYFISHVLAFFAASDGIVNENLVERFTQEVQVTEARCFYGFQIAMENIHSEMYSLLIDTYIKDSKEREFLFNAIETMPCVKKKADWALNWIGDKNARYGERVVAFAAVEGIFFSGSFASIFWLKKRGLMPGLTFSNELISRDEGLHCDFACLMFKHLINKPSEETVKKIIMNAVEIEQEFLTDALPVKLIGMNCDLMKQYIEFVADRLLLELGFDKVYRVENPFDFMENISLEGKTNFFEKRVGEYQRMGVMSGTTDNTFTLDADF
Q: For B1, which binding is on record?
A: binds

Source: publication PMC3161108
